Compound in this test: Cc1cc(ccc1-c1ccccc1)C(=O)N1CCCN(CC1)C(=O)CCl [compound 10]
As to the kind of experiment: probe-labelled cysteine peptide fold change vs DMSO (competition) (log2 fold change); higher = less target engagement (more negative = stronger competition). To be noted: THP-1, incubation time: 4 h.

The list shows a part of the results.
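Further: competitive profiling in live THP-1 cells: cysteine peptides tagged with an iodoacetamide desthiobiotin (IA-DTB) probe, intensity after compound treatment relative to DMSO-treated cells.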

Take “QSOX2_Q6ZRP7_476_YVHTFFGCK (UniProt Q6ZRP7)”: the “probe-labelled cysteine peptide fold change” value was -0.059 (10 µM) and -0.0526 (50 µM).
The matching figures for “R3HCC1_Q9Y3T6_362_IQWVDDTHALGIFPCLASAAEALTR (UniProt Q9Y3T6+R3HCC1)”: -0.281 and -0.617.
Consider “PXK_Q7Z7A4_112_GLQNYLNVITTNHILSNCELVKK (UniProt Q7Z7A4)”, for which the “probe-labelled cysteine peptide fold change” value is 0.00275 (10 µM) and -0.513 (50 µM).
The matching figures for “RABGEF1_Q9UJ41_157_GIHVDQSDLLCK (UniProt Q9UJ41)”: -0.225 and -0.281.
The corresponding values for “RAB14_P61106_40_KFMADCPHTIGVEFGTR (UniProt P61106)” are -0.0457 and -0.281.
As to “RAB3GAP1_Q15042_510+511_CCLLHQK (UniProt Q15042)”, the “probe-labelled cysteine peptide fold change” value reads like this: (10 µM) -0.058; (50 µM) -0.671.
Take “RACK1_P63244_182_VWNLANCK (UniProt P63244)”: the “probe-labelled cysteine peptide fold change” value is -0.00594 (10 µM) and -0.0137 (50 µM).
The matching figures for “RABGAP1L_Q5R372_554_AEVWQLLAGCHDNQAMLDR (UniProt Q5R372)”: 0.0933 and 0.133.
On to “QARS_P47897_433_WCIYPTYDYTHCLCDSIEHITHSLCTK (UniProt P47897)”, for which the “probe-labelled cysteine peptide fold change” value runs as follows: (10 µM) 0.168; (50 µM) -0.0824.
The corresponding values for “RAB29_O14966_127_CDLSPWAVSR (UniProt O14966)” are -0.0495 and 0.0455.
The corresponding values for “RACGAP1_Q9H0H5_419_VDDIHAICSLLK (UniProt Q9H0H5)” are 0.00786 and 0.00467.
The corresponding values for “RABL6_Q3YEC7_172_VPTHVPVCVLGNYR (UniProt Q3YEC7)” are -0.0178 and 0.0736.
In the case of “PXN_P49023_443_TWHPEHFFCAQCGAFFGPEGFHEK (UniProt P49023)”, the “probe-labelled cysteine peptide fold change” value was 0.16 (10 µM) and 0.138 (50 µM).
The corresponding values for “RACGAP1_Q9H0H5_93_QRAEADCEK (UniProt Q9H0H5)” are 0.258 and 0.278.
On to “RABEP1_Q15276_350_IPVVCALTQEESSAQLSNEEEHLDSTR (UniProt Q15276)”, for which the “probe-labelled cysteine peptide fold change” value (10 µM) turned out to be 0.19 and the “probe-labelled cysteine peptide fold change” value (50 µM) amounted to 0.0593.
Regarding “R3HDM4_Q96D70_29_LLPLPSCLPALASSQVK (UniProt Q96D70)”, the “probe-labelled cysteine peptide fold change” value (10 µM) is -0.0312 and the “probe-labelled cysteine peptide fold change” value (50 µM) was -0.0832.
The matching figures for “RAE1_P78406_93_AQQMHTGPVLDVCWSDDGSK (UniProt P78406)”: -0.171 and -0.139.
The corresponding values for “PYGL_P06737_446_INMAHLCIVGSHAVNGVAK (UniProt P06737)” are 0.052 and 0.0358.
As to “RAB22A_Q9UL26_120_CDLIDVR (UniProt Q9UL26)”, the “probe-labelled cysteine peptide fold change” value was -0.0251 (10 µM) and 0.0894 (50 µM).
The corresponding values for “PUS7L_Q9H0K6_15_FSSLCFFNDHVGFHGTIK (UniProt Q9H0K6)” are 0.109 and 0.05.
The matching figures for “PXK_Q7Z7A4_112_GLQNYLNVITTNHILSNCELVK (UniProt Q7Z7A4)”: 0.0598 and 0.218.
On to “RAB21_Q9UL25_177_GIEELFLDLCK (UniProt Q9UL25)”, for which the “probe-labelled cysteine peptide fold change” value (10 µM) came out at 0.0941 and the “probe-labelled cysteine peptide fold change” value (50 µM) came out at 0.191.
The corresponding values for “RAB21_Q9UL25_126+128_MLGNEICLCIVGNK (UniProt Q9UL25)” are -0.445 and -0.353.
The matching figures for “RAB35_Q15286_110+114_WLHEINQNCDDVCR (UniProt Q15286)”: 0.186 and 0.054.
Consider “RABGAP1_Q9Y3P9_155_LTYLGCASVNAPR (UniProt Q9Y3P9)”, for which the “probe-labelled cysteine peptide fold change” value (10 µM) was determined as 0.0506 and the “probe-labelled cysteine peptide fold change” value (50 µM) was -0.0968.
The matching figures for “RAB3GAP2_Q9H2M9_636_SQELESVDEGLLQFCANK (UniProt Q9H2M9)”: 0.0951 and 0.0894.
The matching figures for “RAB7B_Q96AH8_142_KVPQEVAQGWCR (UniProt Q96AH8)”: 0.0385 and 0.284.
The matching figures for “PXN_P49023_387_TWHPEHFVCTHCQEEIGSR (UniProt P49023)”: -0.0992 and -0.106.
With “PYCR3_Q53H96_235_SDVCTPGGTTIYGLHALEQGGLR (UniProt Q53H96)”, the “probe-labelled cysteine peptide fold change” value was -0.563 (10 µM) and -0.315 (50 µM).
The corresponding values for PXK_Q7Z7A4_252_KYCNPK (UniProt Q7Z7A4) are -0.0663 and -0.0773.
The matching figures for “RAB14_P61106_26_SCLLHQFTEKK (UniProt P61106)”: -0.207 and -0.895.
The corresponding values for “RAB23_Q9ULC3_130_IDLLDDSCIK (UniProt Q9ULC3)” are -0.135 and 0.536.
Take “QSER1_Q2KHR3_1188_TFCPPPLPK (UniProt Q2KHR3)”: the “probe-labelled cysteine peptide fold change” value is -0.0924 (10 µM) and 0.0277 (50 µM).
The corresponding values for “RABEP2_Q9H5N1_372_CLHHEVK (UniProt Q9H5N1)” are -0.042 and -0.463.
The matching figures for “QDPR_P09417_85_VDAILCVAGGWAGGNAK (UniProt P09417)”: 0.0495 and 0.111.
In the case of “PYGL_P06737_496_WLLLCNPGLAELIAEK (UniProt P06737)”, the “probe-labelled cysteine peptide fold change” value (10 µM) came to 0.0971 and the “probe-labelled cysteine peptide fold change” value (50 µM) amounted to 0.169.
As for “RABEP1_Q15276_718_EQIQAEQCLK (UniProt Q15276)”, the “probe-labelled cysteine peptide fold change” value is -0.0181 (10 µM) and 0.106 (50 µM).

These data come from the supplement of paper PMC12067093, “Discovery and optimisation of a covalent ligand for TRIM25 and its application to targeted protein ubiquitination” (Chemical Science, 2025).
